Measurements published in patent publication US7462599B2, “Use of effectors of glutaminyl and glutamate cyclases” (Probiodrug AG, priority 2003, dated 2008).
At least one peptide structure holds a part that was inferred or is arguable (an end, a ring closure or a residue). Ends that are not written are not given here.

Protein sequences, listed by entry. Tags and fused reporters are not part of them. Lines headed by an entry give the natural chain unless they say otherwise; changes in a name come on top. Residues count along the entry.
UniProt Q16769, 29-361: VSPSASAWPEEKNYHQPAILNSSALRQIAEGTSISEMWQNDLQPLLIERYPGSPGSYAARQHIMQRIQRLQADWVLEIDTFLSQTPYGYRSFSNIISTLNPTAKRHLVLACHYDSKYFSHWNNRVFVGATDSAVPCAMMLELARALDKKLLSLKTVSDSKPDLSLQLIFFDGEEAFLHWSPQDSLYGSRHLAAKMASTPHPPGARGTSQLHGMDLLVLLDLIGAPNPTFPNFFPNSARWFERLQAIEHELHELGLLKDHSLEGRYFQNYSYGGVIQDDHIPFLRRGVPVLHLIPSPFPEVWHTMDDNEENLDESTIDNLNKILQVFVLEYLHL
UniProt P22411: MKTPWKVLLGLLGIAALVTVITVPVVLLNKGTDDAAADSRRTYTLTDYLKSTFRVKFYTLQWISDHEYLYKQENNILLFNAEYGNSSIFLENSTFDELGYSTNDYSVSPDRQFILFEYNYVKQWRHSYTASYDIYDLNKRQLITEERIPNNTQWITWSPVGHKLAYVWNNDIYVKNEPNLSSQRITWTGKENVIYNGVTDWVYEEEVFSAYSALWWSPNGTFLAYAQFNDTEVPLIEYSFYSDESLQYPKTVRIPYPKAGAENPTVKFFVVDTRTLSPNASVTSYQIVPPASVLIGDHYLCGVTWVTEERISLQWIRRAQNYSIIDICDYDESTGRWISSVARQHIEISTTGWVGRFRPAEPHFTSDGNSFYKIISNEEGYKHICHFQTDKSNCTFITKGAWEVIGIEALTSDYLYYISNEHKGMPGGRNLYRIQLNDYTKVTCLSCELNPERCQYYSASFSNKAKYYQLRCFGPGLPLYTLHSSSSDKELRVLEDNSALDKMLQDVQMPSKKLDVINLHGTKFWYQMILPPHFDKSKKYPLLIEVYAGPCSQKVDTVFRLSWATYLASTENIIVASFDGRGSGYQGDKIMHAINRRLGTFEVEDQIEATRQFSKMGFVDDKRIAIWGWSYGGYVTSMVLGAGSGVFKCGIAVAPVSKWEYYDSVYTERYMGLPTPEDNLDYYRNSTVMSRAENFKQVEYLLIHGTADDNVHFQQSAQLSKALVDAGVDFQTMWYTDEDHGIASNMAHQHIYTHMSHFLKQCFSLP

What was measured:
Assay type in all cases: biochemical
[1] = biological target: T1, QC (Homo sapiens, UniProt Q16769); assay: Long-term Glu1-cyclization of Aβ-derived peptides by recombinant human QC, MALDI-TOF; design: The cDNA of the mature QC starting with codon 38 was fused in frame with the plasmid encoded 6× histidine tag; 6x histidine tag; made in house; host or cells: Pichia pastoris X33 (pPICZαB); also E. coli M15 (pQE-31); settings: pH 5.2 (Aβ(3-11)a), pH 6.5 (Aβ(3-21)a)
Excerpt: At different times, samples were removed from the assay tube, peptides extracted using ZipTips (Millipore) according to the manufacturer's recommendations, mixed with matrix solution (1:1 v/v) and subsequently the mass spectra recorded.

[2] = biological target: T2, DP IV (porcine kidney) (Sus scrofa, UniProt P22411); assay: DP IV cleavage of Gln3-Aβ(1-11)a, MALDI-TOF
T2 construct: purified DP IV (porcine kidney); from tissue; host or cells: porcine kidney
Description: (§1) Matrix-assisted laser desorption/ionization mass spectrometry was carried out using the Hewlett-Packard G2025 LD-TOF System with a linear time of flight analyzer. […] Samples (5 μl) were mixed with equal volumes of the matrix solution. For matrix solution we used DHAP/DAHC, prepared by solving 30 mg 2′,6′-dihydroxyacetophenone (Aldrich) and 44 mg diammonium hydrogen citrate (Fluka) in 1 ml acetonitrile/0.1% TFA in water (1/1, v/v). A small volume (≈1 μl) of the matrix-analyte-mixture was transferred to a probe tip and immediately evaporated in a vacuum chamber (Hewlett-Packard G2024A sample prep accessory) to ensure rapid and homogeneous sample crystallization.

[3] = test system: Glutaminyl cyclase present in the homogenate of porcine pituitary; assay: Cyclization of Gln3-Aβ(3-11)a by QC in pituitary homogenate, MALDI-TOF
Description: as §1

[4] = biological target: T1, QC; assay: Continuous spectrophotometric assay of substrate conversion, human QC;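 further: initial rates read at 30 °C in a microplate reader, with activity quantified against an ammonia calibration curve under the same assay conditions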; design: The cDNA of the mature QC starting with codon 38 was fused in frame with the plasmid encoded 6× histidine tag; 6x histidine tag; made in house; host or cells: Pichia pastoris X33 (pPICZαB); also E. coli M15 (pQE-31); settings: recombinant human QC

## EFRHDSGYE-NH2 [Aβ(3-11)a]
[1]
  conversion of Glu-peptide by human QC: can also serve as QC-substrates

## DAQFRHDSGYE-NH2 [Gln^3-Aβ(1-11)a]
[2]
  cleavage by DP IV: cleaving

## QFRHDSGYE-NH2 [[Gln^3]Aβ3-11a]
[3]
  conversion to pGlu form by QC of pituitary homogenate: catalyzes conversion
[4]; buffer containing 1% DMSO
  kcat: 41.4 ± 0.4 s⁻¹
[4]; determined in absence of DMSO
  Km: 87 µM
  kcat: 55 ± 1^# s^−1

## EFRHDSGYEVHHQKLVFFA-NH2 [Aβ(3-21)a]
[1]
  conversion of Glu-peptide by human QC: can also serve as QC-substrates
